One molecule from paper PMC4381595 can be followed below.

Chains of the proteins cited; added tags and fusions are not shown.
UniProt Q15648: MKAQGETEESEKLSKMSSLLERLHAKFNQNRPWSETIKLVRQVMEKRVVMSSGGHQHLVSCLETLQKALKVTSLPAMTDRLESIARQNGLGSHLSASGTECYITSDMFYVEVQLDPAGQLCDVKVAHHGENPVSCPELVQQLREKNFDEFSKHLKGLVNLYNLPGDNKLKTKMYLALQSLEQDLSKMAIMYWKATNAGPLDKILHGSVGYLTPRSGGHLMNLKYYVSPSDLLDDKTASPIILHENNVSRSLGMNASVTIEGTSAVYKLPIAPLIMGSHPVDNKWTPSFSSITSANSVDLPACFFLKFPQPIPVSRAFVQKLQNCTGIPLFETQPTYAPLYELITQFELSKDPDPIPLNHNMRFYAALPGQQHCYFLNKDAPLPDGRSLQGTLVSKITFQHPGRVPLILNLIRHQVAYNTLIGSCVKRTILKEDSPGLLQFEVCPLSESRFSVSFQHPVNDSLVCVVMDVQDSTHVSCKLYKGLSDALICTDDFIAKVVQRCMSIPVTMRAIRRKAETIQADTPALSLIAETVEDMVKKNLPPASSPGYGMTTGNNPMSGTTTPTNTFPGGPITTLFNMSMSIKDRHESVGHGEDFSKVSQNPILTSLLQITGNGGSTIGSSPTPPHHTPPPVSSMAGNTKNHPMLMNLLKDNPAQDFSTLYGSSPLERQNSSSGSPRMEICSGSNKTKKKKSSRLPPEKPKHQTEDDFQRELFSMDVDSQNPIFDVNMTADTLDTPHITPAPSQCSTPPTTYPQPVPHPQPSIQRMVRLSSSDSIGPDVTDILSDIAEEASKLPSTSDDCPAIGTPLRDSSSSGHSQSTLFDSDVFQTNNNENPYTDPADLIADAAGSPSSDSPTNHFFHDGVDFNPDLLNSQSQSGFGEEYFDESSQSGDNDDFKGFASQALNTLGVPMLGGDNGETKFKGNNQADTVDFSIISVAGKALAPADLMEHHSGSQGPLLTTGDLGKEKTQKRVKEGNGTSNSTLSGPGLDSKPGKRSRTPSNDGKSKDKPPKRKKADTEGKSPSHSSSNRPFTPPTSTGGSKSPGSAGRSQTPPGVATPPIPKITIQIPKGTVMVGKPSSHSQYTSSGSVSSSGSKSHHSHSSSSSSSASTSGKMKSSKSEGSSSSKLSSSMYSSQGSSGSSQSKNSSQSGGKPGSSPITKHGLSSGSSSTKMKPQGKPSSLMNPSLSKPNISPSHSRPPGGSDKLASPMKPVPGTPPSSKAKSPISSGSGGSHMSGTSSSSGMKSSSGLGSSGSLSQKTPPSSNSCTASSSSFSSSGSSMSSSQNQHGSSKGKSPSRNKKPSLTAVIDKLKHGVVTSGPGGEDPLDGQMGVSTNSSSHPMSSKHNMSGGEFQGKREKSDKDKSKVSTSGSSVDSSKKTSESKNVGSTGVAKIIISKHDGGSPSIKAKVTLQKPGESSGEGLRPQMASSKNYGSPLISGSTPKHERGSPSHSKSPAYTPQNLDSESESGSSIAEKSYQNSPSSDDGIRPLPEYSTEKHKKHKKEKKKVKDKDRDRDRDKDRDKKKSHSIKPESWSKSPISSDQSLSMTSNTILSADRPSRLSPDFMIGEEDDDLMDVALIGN

The target of experiment [1] is phosphorylated MED1 (Mediator complex subunit 1), endogenous (human (endogenous in LNCaP and M12)) (UniProt Q15648). The experiment in a line: co-IP; anti-p-MED1 IP from lysates of the cumate-inducible LNCaP-AR^v567es stable line; protein A/G beads; Western blot.
Experiment [2] has the same target. The experiment in a line: co-IP; anti-p-MED1 IP from lysates of the cumate-inducible AR-null M12-AR^v567es stable line; protein A/G beads; Western blot. Background: In western blotting, separated proteins are transferred to a membrane and probed.

These are yes or no findings as the source states them, for the method shown. In cells and extracts the contact can be indirect. Some binding calls cover weakened binding; strength is not graded here.

B1: FoxA1, endogenous (protein, UniProt P55317 1-472)
chain: MLGTVKMEGHETSDWNSYYADTQEAYSSVPVSNMNSGLGSMNSMNTYMTMNTMTTSGNMTPASFNMSYANPGLGAGLSPGAVAGMPGGSAGAMNSMTAAGVTAMGTALSPSGMGAMGAQQAASMNGLGPYAAAMNPCMSPMAYAPSNLGRSRAGGGGDAKTFKRSYPHAKPPYSYISLITMAIQQAPSKMLTLSEIYQWIMDLFPYYRQNQQRWQNSIRHSLSFNDCFVKVARSPDKPGKGSYWTLHPDSGNMFENGCYLRRQKRFKCEKQPGAGGGGGSGSGGSGAKGGPESRKDPSGASNPSADSPLHRGVHGKTGQLEGAPAPGPAASPQTLDHSGATATGGASELKTPASSTAPPISSGPGALASVPASHPAHGLAPHESQLHLKGDPHYSFNHPFSINNLMSSSEQQHKLDFKAYEQALQYSPYGSTLPASLPLGSASVTTRSPIEPSALEPAYYQGVYSRPVLNTS
As to B1, the binding entry in experiment [1] and in experiment [2] was “binds” in each case.
